Experimental findings from publication PMC6848165, “C1R Mutations Trigger Constitutive Complement 1 Activation in Periodontal Ehlers-Danlos Syndrome” (Frontiers in Immunology, 2019) are described below.

The target in assay [1] is T1, C1r p.S654A (enzymatically inactive proenzyme C1r 'WT') (human) (UniProt P00736).
T1 sequence: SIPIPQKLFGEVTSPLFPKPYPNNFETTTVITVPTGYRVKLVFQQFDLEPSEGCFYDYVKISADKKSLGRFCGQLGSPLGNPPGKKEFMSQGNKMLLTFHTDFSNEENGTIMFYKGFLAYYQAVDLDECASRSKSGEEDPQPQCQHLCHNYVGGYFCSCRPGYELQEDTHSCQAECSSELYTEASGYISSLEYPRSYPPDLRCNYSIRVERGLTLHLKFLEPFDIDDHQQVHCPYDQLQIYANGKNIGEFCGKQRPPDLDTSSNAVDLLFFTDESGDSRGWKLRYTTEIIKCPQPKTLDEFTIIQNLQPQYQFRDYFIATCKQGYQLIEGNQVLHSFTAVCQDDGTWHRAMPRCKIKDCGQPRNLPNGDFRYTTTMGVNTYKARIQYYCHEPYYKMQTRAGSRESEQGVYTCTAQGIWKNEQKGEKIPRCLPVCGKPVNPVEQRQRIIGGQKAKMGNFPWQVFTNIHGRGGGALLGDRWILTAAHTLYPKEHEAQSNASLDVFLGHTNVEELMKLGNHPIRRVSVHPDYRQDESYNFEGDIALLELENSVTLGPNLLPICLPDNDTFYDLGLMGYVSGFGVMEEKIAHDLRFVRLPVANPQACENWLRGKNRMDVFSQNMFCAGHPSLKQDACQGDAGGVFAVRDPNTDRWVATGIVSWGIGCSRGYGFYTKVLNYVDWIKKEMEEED
In words: SEC; purified tetramers on Superose 6 Increase 10/300 GL, 50 mM Tris, 150 mM NaCl, pH 7.4, 5 mM EDTA, 0.5 ml/min; both purified. A general note: Size exclusion chromatography separates by hydrodynamic size, large species first.

The target in assay [2] is T2, C1r p.(D290G) with additional p.S654A mutation (human) (UniProt P00736).
T2 sequence: T1 sequence with D273G
Described as above.

Assay [3] deals with T1, C1r p.S654A (enzymatically inactive proenzyme C1r 'WT') (human). In words: SEC; purified tetramers on Superose 6 Increase 10/300 GL, 50 mM Tris, 150 mM NaCl, pH 7.4, 2 mM CaCl2, 0.5 ml/min; both purified.
In assay [4] the target is T2, C1r p.(D290G) with additional p.S654A mutation (human). The assay is described as above.

Where a chain is given by its changes, count along the chain named. Results are given in words; binding and its absence hold for the method and conditions named. For some of these results: Binding can be weak; no strength is given.

Turning to C1s (proenzyme, WT) (human), the binding result in assay [1] is listed as “no binding (only with 5 mM EDTA)”; in assay [2], “no binding (only with 5 mM EDTA)”; in assay [3] it was “binds”; in assay [4], “binds”.
